In paper PMC11211476:
Results are given in words; binding and its absence hold for the method and conditions named. Binding seen in cells or lysates may run through a third protein. Some results given as binding are weak or reduced against the parent protein; the word gives no strength. For some of these results: Where a sequence is shown, tags or fusion partners need not be part of it.

Assays:
[1] = target: T1, ovarian tumor deubiquitinase 5 (OTUD5), endogenous (mouse (endogenous in MPC5 cells and mouse kidney tissue)) (UniProt Q3U2S4); test: co-IP; MPC5 cell lysate; endogenous OTUD5 immunoprecipitated, control IgG; protein A + G agarose, 5 washes with PBS; western blot
T1 sequence: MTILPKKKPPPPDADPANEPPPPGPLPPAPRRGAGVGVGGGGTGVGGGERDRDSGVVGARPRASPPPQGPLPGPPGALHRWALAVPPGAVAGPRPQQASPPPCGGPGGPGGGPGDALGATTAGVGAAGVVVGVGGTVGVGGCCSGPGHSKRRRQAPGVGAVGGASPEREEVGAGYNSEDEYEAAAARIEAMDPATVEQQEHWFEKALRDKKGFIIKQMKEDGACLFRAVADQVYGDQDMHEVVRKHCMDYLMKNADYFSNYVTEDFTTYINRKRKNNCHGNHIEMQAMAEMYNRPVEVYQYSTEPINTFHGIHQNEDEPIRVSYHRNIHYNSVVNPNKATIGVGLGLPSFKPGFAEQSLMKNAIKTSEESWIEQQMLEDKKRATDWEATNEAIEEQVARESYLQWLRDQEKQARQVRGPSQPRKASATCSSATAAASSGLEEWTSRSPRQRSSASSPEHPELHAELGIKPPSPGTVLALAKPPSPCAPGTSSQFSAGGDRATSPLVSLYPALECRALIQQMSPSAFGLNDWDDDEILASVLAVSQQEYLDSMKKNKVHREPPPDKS

[2] = target: T1, ovarian tumor deubiquitinase 5 (OTUD5), endogenous (mouse (endogenous in MPC5 cells and mouse kidney tissue)); test: co-IP; mouse kidney tissue lysate; endogenous OTUD5 immunoprecipitated, control IgG; protein A + G agarose, 5 washes with PBS; western blot
Flag-OTUD5-WT = target: T2, Flag-OTUD5-WT (UniProt Q3U2S4); test: co-IP; NIH/3T3 co-transfected with Flag-OTUD5 and His-TAK1 plasmids; exogenous OTUD5 immunoprecipitated with an anti-Flag antibody
T2 sequence: T1 sequence

His-TAK1-WT = target: T3, His-TAK1-WT (UniProt Q62073); test: co-IP; NIH/3T3 transfected with His-TAK1 (WT or K158R) with or without Flag-OTUD5 (WT or C224A); co-IP with an anti-His antibody, western blot of TAK1 and TAB2
T3 sequence: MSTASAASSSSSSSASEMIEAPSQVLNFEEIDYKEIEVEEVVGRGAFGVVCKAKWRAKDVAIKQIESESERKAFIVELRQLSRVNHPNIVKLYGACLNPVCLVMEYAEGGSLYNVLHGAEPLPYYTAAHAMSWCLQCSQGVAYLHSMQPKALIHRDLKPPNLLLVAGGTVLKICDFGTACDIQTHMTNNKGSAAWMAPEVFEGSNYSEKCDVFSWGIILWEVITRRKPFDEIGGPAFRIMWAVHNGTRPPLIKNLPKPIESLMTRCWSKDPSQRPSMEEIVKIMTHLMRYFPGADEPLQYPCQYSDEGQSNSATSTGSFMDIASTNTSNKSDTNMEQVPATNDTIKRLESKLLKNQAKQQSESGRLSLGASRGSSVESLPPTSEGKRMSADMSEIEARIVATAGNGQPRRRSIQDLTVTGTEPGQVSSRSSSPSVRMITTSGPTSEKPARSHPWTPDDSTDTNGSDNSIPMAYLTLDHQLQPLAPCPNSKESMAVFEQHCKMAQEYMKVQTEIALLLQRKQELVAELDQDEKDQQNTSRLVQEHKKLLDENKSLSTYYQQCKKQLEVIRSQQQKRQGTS

B1: TGF-β-activated kinase 1 (TAK1), endogenous (enzyme, UniProt Q62073 1-579)
chain: T3 sequence
In the case of B1, the binding [1] is reported as “binds” and the binding [2] is reported as “binds”.

B2: His-TAK1-WT (enzyme, UniProt Q62073 1-579)
chain: T3 sequence
With B2 the binding (Flag-OTUD5-WT) was “binds”.

B3: TAB2, endogenous (protein, UniProt Q99K90 1-693)
chain: MAQGSHQIDFQVLHDLRQKFPEVPEVVVSRCMLQNNNNLDACCAVLSQESTRYLYGEGDLNFSDESGISGLRNHMTSLNLDLQSQNVYHHGREGSRVNGSRTLTHSVSDGQLHGGQSNNELFQQEPQTAPAQVPQGFNVFGMPSTSGASNSTPHLGFHLGSKGTSNLSQQTPRFNPIMVTLAPNIQTGRSTPTSLHIHGVPPPVLNSPQGNSIYIRPYITTPSGTARQTQQHSGWVSQFNPMNPQQAYQPSQPGPWTTYPASNPLPHTSTQQPNQQGHQTSHVYMPISSPTTPQPPTIHSSGSSQSSAHSQYNIQNISTGPRKNQIEIKLEPPQRNSSSKLRSSGPRTASTSSLVNSQTLNRNQPTVYIAASPPNTDEMISRSQPKVYISANATAGDEQGMRNQPTLFISTNSGPSAASRNMSGQVSMGPAFIHHHPPKSRVLGGNSATSPRVVVTQPNTKYTFKITVSPNKPPAVSPGVVSPTFELTNLLNHPDHYVETENIQHLTDPALAHVDRISEARKLSMGSDDAAYTQALLVHQKARMERLQRELEMQKKKLDKLKSEVNEMENNLTRRRLKRSNSISQIPSLEEMQQLRSCNRQLQIDIDCLTKEIDLFQARGPHFNPSAIHNFYDNIGFVGPVPPKPKDQRSTIKAPKTQDAEDEEGAQWNCTACTFLNHPALIRCEQCEMPRHF
B3 was tested, and the binding (His-TAK1-WT) was “binds”.
